No constants are given. Whether binding was seen depends on the method and setting. Some entries that bind do so weakly or less than the wild type.

The chains behind the UniProt entries cited, without tags or fusion partners.
UniProt P0AES4: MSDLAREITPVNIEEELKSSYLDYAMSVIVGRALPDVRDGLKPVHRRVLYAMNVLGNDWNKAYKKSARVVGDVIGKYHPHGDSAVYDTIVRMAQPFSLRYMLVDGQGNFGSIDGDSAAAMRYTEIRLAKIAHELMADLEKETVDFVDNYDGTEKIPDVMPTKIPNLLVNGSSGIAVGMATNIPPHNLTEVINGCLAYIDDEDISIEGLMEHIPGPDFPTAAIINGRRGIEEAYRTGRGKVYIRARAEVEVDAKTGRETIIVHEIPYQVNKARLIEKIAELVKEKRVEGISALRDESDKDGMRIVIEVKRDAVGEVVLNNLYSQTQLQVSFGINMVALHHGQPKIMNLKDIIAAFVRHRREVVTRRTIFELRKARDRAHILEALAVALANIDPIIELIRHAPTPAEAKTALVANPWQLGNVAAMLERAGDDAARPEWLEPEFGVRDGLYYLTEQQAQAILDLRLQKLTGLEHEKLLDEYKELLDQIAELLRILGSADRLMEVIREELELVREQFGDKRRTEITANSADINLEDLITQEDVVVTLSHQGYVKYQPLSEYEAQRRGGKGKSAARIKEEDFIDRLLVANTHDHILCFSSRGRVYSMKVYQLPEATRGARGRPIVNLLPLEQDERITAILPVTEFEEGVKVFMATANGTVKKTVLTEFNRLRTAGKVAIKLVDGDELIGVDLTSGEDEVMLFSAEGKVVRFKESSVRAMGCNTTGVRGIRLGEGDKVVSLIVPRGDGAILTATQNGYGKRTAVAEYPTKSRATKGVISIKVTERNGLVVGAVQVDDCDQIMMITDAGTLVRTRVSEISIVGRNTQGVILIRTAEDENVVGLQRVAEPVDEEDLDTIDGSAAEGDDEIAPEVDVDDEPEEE

The text below walks through data of article PMC11374673, “Discovery of isoquinoline sulfonamides as allosteric gyrase inhibitors with activity against fluoroquinolone-resistant bacteria” (Nature Chemistry, 2024).

The target of this test is E. coli DNA gyrase subunit A (GyrA) (E. coli) (UniProt P0AES4). The experiment in a line: cryo-EM structure; both purified.

As for “E. coli DNA gyrase subunit A (GyrA) (from UniProt P0AES4 1-875) (other; other documents disagree on this pair)”, the binding result was “binds”.
